Square brackets hold non-standard residues; d marks the D form.
Test: general procedure: Boc solid-phase peptide synthesis; 4-methyl benzhydrylamine resin (BHA)
Settings: whole synthesis, analytical HPLC, scale of the general procedure 0.05 meq

Substance	final HPLC purity
H-LK[dL]LH[dK]L[dL][dK]HLL[dK]LL-NH2 (SMILES CC(C)C[C@H](NC(=O)[C@H](CC(C)C)NC(=O)[C@@H](CCCCN)NC(=O)[C@H](CC(C)C)NC(=O)[C@H](CC(C)C)NC(=O)[C@H](Cc1c[nH]cn1)NC(=O)[C@@H](CCCCN)NC(=O)[C@@H](CC(C)C)NC(=O)[C@H](CC(C)C)NC(=O)[C@@H](CCCCN)NC(=O)[C@H](Cc1c[nH]cn1)NC(=O)[C@H](CC(C)C)NC(=O)[C@@H](CC(C)C)NC(=O)[C@H](CCCCN)NC(=O)[C@@H](N)CC(C)C)C(N)=O)	≧98%
H-LK[dL]LK[dK]L[dL][dK]KLL[dK]LL-NH2	≧99%
